From the supplement of paper PMC12067093, “Discovery and optimisation of a covalent ligand for TRIM25 and its application to targeted protein ubiquitination” (Chemical Science, 2025)
The other results are listed elsewhere or left out.

Chains of the proteins cited; added tags and fusions are not shown. Lines headed by an entry give the natural chain unless they say otherwise; changes in a name come on top.
UniProt P40925: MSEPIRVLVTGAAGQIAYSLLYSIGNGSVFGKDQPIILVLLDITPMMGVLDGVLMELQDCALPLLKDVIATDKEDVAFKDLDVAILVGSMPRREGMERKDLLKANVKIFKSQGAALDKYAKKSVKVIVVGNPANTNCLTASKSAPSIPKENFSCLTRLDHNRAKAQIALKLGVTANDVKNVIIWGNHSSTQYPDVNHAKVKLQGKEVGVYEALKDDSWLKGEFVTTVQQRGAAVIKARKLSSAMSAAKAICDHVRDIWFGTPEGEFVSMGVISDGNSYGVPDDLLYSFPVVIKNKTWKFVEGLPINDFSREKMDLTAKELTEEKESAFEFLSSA
UniProt Q8NE86: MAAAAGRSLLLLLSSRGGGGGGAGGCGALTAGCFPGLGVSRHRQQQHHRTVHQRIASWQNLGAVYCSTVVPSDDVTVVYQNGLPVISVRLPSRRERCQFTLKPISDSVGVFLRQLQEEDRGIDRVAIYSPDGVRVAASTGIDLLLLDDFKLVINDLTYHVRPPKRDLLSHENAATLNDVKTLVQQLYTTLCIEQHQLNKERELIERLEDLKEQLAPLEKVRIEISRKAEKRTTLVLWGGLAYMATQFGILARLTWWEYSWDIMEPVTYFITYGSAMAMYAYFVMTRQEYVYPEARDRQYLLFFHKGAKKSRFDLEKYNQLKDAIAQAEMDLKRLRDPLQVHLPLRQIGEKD
UniProt O95402: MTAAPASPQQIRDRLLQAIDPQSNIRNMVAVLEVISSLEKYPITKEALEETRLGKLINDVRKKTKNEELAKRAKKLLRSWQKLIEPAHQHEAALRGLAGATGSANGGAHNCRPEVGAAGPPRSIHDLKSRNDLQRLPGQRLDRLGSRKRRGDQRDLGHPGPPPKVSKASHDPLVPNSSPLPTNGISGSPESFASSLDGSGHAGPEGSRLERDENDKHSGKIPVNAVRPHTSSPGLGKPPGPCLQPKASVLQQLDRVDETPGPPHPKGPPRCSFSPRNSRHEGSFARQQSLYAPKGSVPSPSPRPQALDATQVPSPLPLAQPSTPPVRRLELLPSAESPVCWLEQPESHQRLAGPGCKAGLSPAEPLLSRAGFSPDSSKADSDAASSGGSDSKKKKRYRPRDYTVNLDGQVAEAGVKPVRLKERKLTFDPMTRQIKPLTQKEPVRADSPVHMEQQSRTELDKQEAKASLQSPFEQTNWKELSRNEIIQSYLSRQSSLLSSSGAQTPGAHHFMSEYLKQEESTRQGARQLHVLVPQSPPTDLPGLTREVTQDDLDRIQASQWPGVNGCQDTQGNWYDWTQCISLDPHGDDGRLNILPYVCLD
UniProt P25205: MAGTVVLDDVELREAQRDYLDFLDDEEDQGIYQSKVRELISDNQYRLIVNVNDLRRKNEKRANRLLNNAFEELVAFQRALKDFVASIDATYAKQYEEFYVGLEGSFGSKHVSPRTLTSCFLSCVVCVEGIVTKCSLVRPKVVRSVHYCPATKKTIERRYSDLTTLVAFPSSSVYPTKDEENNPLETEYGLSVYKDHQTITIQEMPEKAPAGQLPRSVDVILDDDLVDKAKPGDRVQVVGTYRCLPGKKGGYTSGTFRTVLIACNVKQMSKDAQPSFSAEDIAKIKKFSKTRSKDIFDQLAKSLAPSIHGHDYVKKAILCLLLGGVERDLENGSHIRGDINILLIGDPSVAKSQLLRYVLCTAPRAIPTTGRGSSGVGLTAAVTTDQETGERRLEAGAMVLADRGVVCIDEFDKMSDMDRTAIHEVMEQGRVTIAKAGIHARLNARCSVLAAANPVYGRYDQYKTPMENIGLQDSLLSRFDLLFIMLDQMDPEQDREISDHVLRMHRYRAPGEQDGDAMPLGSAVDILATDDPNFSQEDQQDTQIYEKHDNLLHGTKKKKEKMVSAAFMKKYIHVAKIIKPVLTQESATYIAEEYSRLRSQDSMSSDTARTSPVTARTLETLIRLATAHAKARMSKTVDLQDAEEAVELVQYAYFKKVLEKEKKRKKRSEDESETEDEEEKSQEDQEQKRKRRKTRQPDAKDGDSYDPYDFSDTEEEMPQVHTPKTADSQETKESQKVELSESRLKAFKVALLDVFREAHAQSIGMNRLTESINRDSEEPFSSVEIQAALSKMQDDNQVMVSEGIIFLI
UniProt Q7L2J0: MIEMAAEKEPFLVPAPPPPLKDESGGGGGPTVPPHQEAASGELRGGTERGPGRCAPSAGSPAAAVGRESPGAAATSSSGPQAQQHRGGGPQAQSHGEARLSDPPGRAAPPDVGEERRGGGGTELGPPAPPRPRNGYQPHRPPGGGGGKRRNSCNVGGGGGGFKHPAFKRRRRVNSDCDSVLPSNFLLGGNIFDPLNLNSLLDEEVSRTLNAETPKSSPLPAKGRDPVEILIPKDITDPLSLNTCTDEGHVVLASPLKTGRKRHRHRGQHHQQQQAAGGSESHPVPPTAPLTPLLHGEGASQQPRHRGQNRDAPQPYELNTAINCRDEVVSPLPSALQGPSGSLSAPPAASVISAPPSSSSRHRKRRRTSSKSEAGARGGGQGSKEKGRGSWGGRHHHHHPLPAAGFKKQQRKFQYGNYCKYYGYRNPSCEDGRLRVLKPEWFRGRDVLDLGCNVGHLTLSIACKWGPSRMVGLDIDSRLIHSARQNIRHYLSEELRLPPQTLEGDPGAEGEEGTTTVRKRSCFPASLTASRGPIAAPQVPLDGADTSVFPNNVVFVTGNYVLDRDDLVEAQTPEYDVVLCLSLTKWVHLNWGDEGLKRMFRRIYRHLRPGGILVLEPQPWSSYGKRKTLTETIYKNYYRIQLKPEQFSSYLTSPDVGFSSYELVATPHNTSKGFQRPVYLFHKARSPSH
UniProt Q14566: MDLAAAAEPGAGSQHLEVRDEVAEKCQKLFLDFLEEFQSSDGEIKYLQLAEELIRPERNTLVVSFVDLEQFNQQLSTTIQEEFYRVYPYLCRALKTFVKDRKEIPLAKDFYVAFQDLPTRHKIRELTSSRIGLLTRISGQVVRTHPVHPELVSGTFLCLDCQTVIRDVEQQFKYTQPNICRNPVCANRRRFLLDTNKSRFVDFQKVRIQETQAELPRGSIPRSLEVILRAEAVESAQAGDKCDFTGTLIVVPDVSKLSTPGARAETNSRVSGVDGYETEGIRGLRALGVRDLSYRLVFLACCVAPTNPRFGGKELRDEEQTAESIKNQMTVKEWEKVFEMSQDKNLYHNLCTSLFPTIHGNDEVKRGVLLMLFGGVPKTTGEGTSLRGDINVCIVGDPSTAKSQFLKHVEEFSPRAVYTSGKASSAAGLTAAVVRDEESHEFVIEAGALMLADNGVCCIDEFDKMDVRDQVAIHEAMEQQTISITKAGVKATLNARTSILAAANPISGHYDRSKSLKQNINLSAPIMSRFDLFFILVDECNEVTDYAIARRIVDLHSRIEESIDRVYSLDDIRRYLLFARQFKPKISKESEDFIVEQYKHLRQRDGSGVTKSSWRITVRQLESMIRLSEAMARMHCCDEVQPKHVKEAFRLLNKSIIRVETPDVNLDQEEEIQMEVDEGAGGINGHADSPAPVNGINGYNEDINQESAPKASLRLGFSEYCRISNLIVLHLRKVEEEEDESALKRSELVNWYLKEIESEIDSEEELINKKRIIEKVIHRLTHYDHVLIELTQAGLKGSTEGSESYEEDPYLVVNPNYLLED
UniProt P08582: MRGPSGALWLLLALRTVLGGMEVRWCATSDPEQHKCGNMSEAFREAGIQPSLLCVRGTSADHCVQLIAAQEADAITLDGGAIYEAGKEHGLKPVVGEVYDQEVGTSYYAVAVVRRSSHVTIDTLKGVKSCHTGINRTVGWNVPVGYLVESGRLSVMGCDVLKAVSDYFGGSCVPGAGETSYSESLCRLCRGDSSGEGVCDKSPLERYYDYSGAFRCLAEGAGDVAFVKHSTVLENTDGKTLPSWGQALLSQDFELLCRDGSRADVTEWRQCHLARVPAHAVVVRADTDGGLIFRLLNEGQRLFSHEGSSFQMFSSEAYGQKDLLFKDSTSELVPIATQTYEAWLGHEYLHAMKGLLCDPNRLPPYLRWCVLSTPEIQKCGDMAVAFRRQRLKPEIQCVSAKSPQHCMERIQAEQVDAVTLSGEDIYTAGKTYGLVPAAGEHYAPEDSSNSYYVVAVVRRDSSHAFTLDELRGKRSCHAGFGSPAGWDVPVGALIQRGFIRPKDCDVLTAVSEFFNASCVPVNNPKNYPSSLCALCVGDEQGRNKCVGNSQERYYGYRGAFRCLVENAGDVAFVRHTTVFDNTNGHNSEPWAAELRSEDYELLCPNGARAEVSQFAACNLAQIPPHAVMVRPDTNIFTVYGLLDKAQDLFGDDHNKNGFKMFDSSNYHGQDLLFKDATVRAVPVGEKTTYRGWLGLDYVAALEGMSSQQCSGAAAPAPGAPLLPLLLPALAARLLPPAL
UniProt Q71F56: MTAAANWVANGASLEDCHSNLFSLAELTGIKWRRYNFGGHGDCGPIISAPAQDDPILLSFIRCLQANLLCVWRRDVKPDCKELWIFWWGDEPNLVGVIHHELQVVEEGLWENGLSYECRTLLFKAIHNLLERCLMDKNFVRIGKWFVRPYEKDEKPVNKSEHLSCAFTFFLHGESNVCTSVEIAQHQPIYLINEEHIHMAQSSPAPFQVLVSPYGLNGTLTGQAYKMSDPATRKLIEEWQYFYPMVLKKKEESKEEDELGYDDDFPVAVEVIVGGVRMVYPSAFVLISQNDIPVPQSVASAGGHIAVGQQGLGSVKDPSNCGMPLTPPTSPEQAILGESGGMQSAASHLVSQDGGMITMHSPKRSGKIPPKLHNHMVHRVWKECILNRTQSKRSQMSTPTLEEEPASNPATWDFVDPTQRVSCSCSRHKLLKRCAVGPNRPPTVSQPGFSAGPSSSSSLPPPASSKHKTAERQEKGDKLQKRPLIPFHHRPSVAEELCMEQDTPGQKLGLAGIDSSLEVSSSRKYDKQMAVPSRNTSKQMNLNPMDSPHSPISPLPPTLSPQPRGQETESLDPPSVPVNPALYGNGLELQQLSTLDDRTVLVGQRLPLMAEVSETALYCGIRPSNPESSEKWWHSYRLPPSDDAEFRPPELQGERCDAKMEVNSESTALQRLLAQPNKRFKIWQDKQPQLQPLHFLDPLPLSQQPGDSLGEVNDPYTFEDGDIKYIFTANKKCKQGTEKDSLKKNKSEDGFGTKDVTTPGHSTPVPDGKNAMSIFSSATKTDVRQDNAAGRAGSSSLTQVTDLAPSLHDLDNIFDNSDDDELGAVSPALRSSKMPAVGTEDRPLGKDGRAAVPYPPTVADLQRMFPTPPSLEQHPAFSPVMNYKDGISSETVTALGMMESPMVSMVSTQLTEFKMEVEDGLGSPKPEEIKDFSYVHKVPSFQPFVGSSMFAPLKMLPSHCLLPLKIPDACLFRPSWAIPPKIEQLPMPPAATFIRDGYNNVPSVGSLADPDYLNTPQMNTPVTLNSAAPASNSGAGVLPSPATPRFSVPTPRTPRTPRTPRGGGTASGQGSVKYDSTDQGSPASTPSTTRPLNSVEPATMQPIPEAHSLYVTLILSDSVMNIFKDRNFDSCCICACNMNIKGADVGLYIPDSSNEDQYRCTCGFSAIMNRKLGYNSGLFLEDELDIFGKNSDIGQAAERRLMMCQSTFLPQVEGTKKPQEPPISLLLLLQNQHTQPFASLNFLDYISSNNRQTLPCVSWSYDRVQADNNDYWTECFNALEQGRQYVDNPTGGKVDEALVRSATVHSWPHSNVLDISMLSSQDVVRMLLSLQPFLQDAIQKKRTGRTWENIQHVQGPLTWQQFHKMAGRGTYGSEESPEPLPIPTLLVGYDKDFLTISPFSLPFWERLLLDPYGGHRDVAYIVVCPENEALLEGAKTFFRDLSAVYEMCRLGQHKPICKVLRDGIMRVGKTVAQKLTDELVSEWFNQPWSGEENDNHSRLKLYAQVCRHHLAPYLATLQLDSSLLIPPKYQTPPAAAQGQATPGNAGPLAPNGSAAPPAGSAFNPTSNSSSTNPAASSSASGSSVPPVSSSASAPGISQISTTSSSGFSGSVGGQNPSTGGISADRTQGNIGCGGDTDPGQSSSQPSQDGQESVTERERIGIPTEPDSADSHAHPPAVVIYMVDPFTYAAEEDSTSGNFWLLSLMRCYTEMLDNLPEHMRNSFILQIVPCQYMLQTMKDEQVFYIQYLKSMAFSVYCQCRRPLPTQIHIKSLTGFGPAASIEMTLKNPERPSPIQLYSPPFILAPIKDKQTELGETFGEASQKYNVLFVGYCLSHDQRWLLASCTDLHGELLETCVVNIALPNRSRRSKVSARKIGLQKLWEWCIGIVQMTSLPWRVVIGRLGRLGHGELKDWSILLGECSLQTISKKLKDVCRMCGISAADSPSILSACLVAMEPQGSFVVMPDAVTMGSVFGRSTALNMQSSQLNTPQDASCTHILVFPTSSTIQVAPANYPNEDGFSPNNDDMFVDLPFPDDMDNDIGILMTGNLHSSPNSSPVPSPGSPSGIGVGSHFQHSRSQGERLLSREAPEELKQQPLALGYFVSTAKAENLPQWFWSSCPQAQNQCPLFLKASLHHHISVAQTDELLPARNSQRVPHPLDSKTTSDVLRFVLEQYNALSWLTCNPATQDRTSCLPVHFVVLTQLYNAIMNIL

Compound: CC1Cc2ccccc2N1C(=O)C1CCCN(C1)C(=O)CCl (mixture of isomers) [TRIM25 ligand 11 (diastereomer mixture)]
Assay: probe-labelled cysteine peptide fold change vs DMSO (competition) (log2 fold change); higher = less target engagement (more negative = stronger competition)
Settings: 10 µM; THP-1; incubation time: 4 h
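Further: competitive chemoproteomic profiling in live THP-1 cells with an iodoacetamide desthiobiotin (IA-DTB) probe, comparing probe-labelled peptide intensities in compound-treated cells against DMSO-treated controls.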

| Target | probe-labelled cysteine peptide fold change |
| --- | --- |
| MCM3AP_O60318_1839_STECAQEGR (UniProt O60318) | 0.242 |
| MED28_Q9H204_93_QTECFFLQK (UniProt Q9H204) | -0.159 |
| MDH1_P40925_154_ENFSCLTR (UniProt P40925) | -0.0906 |
| MCU_Q8NE86_97_CQFTLKPISDSVGVFLR (UniProt Q8NE86) | -0.212 |
| METAP1_P53582_194_SCCTSVNEVICHGIPDR (UniProt P53582) | 0.0662 |
| MED26_O95402_598_LNILPYVCLD (UniProt O95402) | 0.105 |
| MCM3_P25205_319_AILCLLLGGVERDLENGSHIR (UniProt P25205) | -0.129 |
| MCEE_Q96PE7_166_DCGGVLVELEQA (UniProt Q96PE7) | -0.00109 |
| MEPCE_Q7L2J0_244_DITDPLSLNTCTDEGHVVLASPLK (UniProt Q7L2J0) | -0.113 |
| MCTS1_Q9ULC4_113_FVLSGANIMCPGLTSPGAK (UniProt Q9ULC4) | -0.105 |
| METAP1_P53582_202_SCCTSVNEVICHGIPDR (UniProt P53582) | 0.0679 |
| MED1_Q15648_489_GLSDALICTDDFIAK (UniProt Q15648) | -0.0974 |
| MCM6_Q14566_180_YTQPNICR (UniProt Q14566) | -0.0548 |
| MELTF_P08582_397_LKPEIQCVSAK (UniProt P08582) | 0.0877 |
| MCM8_Q9UJA3_411_LIVNSLCPVIFGHELVK (UniProt Q9UJA3) | -0.166 |
| MCRS1_Q96EZ8_84_CSGSEPSSSEK (UniProt Q96EZ8) | -0.0508 |
| MED13L_Q71F56_1457_LGQHKPICK (UniProt Q71F56) | -0.182 |

Shown with bars between the fields: part of the list above.
Target | probe-labelled cysteine peptide fold change
MEPCE_Q7L2J0_244_DITDPLSLNTCTDEGHVVLASPLK (UniProt Q7L2J0) | -0.113
MCM6_Q14566_180_YTQPNICR (UniProt Q14566) | -0.0548
